PubChem BioAssay AID445 (National Center for Advancing Translational Sciences (NCATS), 2006)
Some of the results follow. These are further read-outs of the screen, such as a control signal, another cell line or another target. No call is given for them. The list favours compounds with an active or inconclusive main result. The note in brackets gives the kind of curve behind each potency; many fits are weak.

Experiment: IkB Signaling
Conditions: ABC-DLBCL IkBa-CBG/CBR dual luciferase ratio (green luciferase fused to IkBa over red control in OCI-Ly3 lymphoma cells), 4 h
Procedure, shortened: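 In this assay, an IκBα–CBG68 fusion accumulates when IKK-driven degradation is blocked; native CBR normalizes for cell number. OCI-Ly3 cells were treated 4 h with compound and doxycycline, then green and red light read after Chroma-Glo addition.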

[1] = measured here: control luc red channel unless noted
[2] = measured here: IkB-luc green channel
[3] = measured here: control luc red channel

SMILES: COc1ccc(N2CCN(C(=O)c3ccc4nc(N5CCC(C)CC5)sc4c3)CC2)cc1
- AC50 [1]: 12.6 µM [falling, partial curve]

SMILES: CC(C)N(Cc1nc(-c2ccc(Cl)cc2)no1)C(=O)CCCN1C(=O)c2ccccc2C1=O
- AC50 [1]: 6.31 µM [falling, partial curve]

SMILES: CC(NC(=O)c1sc2ncccc2c1-n1cccc1)c1ccccc1 (stereo not given)
- AC50 [1]: 10 µM [falling, partial curve]

SMILES: CCSc1nnc(NC(=O)c2cc(C)on2)s1
- AC50 [1]: 10 µM [falling, partial curve]

SMILES: Cc1ccc(CCNC(=O)C2CCCN(C(=O)c3cc4sccc4n3C)C2)cc1 (stereo not given)
- AC50 [1]: 25.1 µM [falling, single point]

SMILES: COC(=O)c1cc(NC(=O)Cn2nc(C)n3cccc3c2=O)cc(C(=O)OC)c1
- AC50 [1]: 2 µM [falling, full curve]

SMILES: CC(C)c1cc(C(=O)Nc2cc(Cl)ccc2O)no1
- AC50 [1]: 12.6 µM [falling, partial curve]

SMILES: CCOC(=O)C1=C(CS(=O)(=O)c2ccc(Br)cc2)NC(=O)NC1c1ccccc1 (stereo not given)
- AC50 [1]: 20 µM [falling, partial curve]

SMILES: Cc1ccccc1CNC(=O)c1ccc(-c2nc(CS(=O)(=O)c3ccccc3)c(C)o2)cc1
- AC50 [1]: 3.98 µM [falling, full curve]

SMILES: COc1ccc(C)cc1NC(=O)CN(c1cc(C(F)(F)F)ccc1Cl)S(C)(=O)=O
- AC50 [1]: 20 µM [falling, single point]

SMILES: CC(Sc1nnc(-c2ccc(O)cc2)o1)C(=O)Nc1cccc2ccccc12 (stereo not given)
- AC50 [1]: 1 µM [falling, full curve]

SMILES: O=C(NCc1ccco1)c1cccs1
- AC50 [1]: 158 nM [rising, full curve, poor fit] [measured here: IkB-luc green channel]

SMILES: CCOC(=O)c1sc2ccccc2c1S(=O)(=O)Nc1cccc(C(F)(F)F)c1
- AC50 [1]: 15.8 µM [falling, partial curve]

SMILES: Cc1cccc(C(=O)NCCc2sc(-c3ccccc3)nc2C)c1
- AC50 [1]: 39.8 µM [falling, single point]

SMILES: CCOC(=O)C1CCCN(c2nc3ccccc3nc2C(C#N)C(=O)OCC)C1 (stereo not given)
- AC50 [1]: 39.8 µM [falling, single point]

SMILES: Cc1coc2c1c(C)cc1oc(=O)cc(C)c12
- AC50 [1]: 1.58 µM [rising, full curve]

SMILES: Cc1oc(-c2cccc(Cl)c2)nc1CN1CCCC(C(=O)NCc2ccc(F)cc2)C1 (stereo not given)
- AC50 [1]: 20 µM [falling, partial curve]

SMILES: CCCCN(C)C(=O)C(Cc1ccccc1)NS(=O)(=O)c1ccc2c(c1)c(=O)n(C)c(=O)n2C (stereo not given)
- AC50 [1]: 25.1 µM [falling, single point]

SMILES: Cc1ccc(CSCC(=O)N2CCN(c3ccc(F)cc3)CC2)cc1
- AC50 [1]: 15.8 µM [falling, partial curve]

SMILES: Cc1ccc2c(=O)cc(CSc3ccccc3)[nH]c2c1C
- AC50 [1]: 20 µM [falling, single point]

SMILES: CC(=O)c1cccc(S(=O)(=O)NCCc2csc3nc(-c4ccc(F)cc4)nn23)c1
- AC50 [1]: 25.1 µM [falling, single point]

SMILES: CC(=O)Oc1c(S(=O)(=O)c2ccc(C)cc2)c(C)nn1C(C)(C)C
- AC50 [1]: 12.6 µM [falling, partial curve]

SMILES: Cc1cccc(N(CC(=O)Nc2ccc(Br)cc2)S(C)(=O)=O)c1C
- AC50 [1]: 39.8 µM [falling, single point]

SMILES: COc1ccc(C(=O)NCc2ccc3c(c2)CCN3C(=O)c2ccncc2)cc1
- AC50 [1]: 0.01 µM [rising, full curve, poor fit]

SMILES: Fc1ccc(-c2nnc(NC3=NCCCCC3)o2)cc1
- AC50 [1]: 0.631 µM [falling, full curve]

SMILES: CN1c2ccccc2-c2nc(SCC(=O)Nc3ccccc3C(F)(F)F)ncc2S1(=O)=O
- AC50 [1]: 39.8 µM [falling, single point]

SMILES: CCCCOC(=O)n1c(=O)oc2cc(S(=O)(=O)N3CCCCC3)ccc21
- AC50 [1]: 20 µM [falling, partial curve]

SMILES: CCN(Cc1ccccc1)C(=O)Cn1c(=O)n(Cc2ccccc2)c(=O)c2c1c1cc(OC)ccc1n2C
- AC50 [1]: 3.16 µM [falling, partial curve]

SMILES: O=C(NCC(c1cccnc1)N1CCN(Cc2ccccc2)CC1)C(=O)Nc1ccc(Cl)cc1 (stereo not given)
- AC50 [1]: 39.8 µM [falling, single point]

SMILES: CCC(Sc1nnc(-c2ccc(OC)cc2)c(-c2ccc(OC)cc2)n1)C(=O)NC1CCCCC1 (stereo not given)
- AC50 [1]: 10 µM [falling, partial curve, poor fit]

SMILES: Cc1ccc(-n2c3nc(=O)n(C)c(=O)c-3cc3c(Cl)cccc32)c(C)c1
- AC50 [1]: 5.01 µM [falling, partial curve]

SMILES: CC1CCCN(S(=O)(=O)c2ccc(NC(=O)c3nc(SC(C)C)ncc3Cl)cc2)C1 (stereo not given)
- AC50 [1]: 39.8 µM [falling, single point]

SMILES: COc1ccccc1/C=C/c1nc(C#N)c(N2CCCCCC2)o1
- AC50 [1]: 39.8 µM [falling, single point]

SMILES: COc1ccc(N2CC(NC(=O)c3ccc(S(=O)(=O)N4CCCC4)cc3)CC2=O)cc1 (stereo not given)
- AC50 [1]: 2 µM [rising, partial curve]

SMILES: Cn1nccc1C(=O)NCc1ccc2c(c1)CCN2C(=O)c1ccc(F)cc1
- AC50 [1]: 10 µM [falling, partial curve]

SMILES: CCOC(=O)C1=C(N)n2c(s/c(=C\c3cccs3)c2=O)=C(C(=O)OCC)C1c1cccs1 (stereo not given)
- AC50 [2]: 0.501 µM [rising, full curve, poor fit]
- AC50 [3]: 0.398 µM [rising, full curve]

SMILES: COc1ccc(OC)c(-c2cc(C(=O)Nc3cccc(Cl)c3C)no2)c1
- AC50 [1]: 15.8 µM [falling, partial curve]

SMILES: O=C(CSc1nc(-c2ccccc2)nc2c1CCCC2)c1ccc(F)cc1
- AC50 [1]: 39.8 µM [falling, single point]

SMILES: Cc1ccc2nc(Nc3nc(=O)c4ccccc4n3C)nc(C)c2c1
- AC50 [1]: 0.316 µM [falling, full curve]

SMILES: CCCCN(CC)CCNC(=O)c1cc2c(-c3ccc(Cl)cc3)nn(C)c2s1
- AC50 [1]: 12.6 µM [falling, partial curve]

SMILES: O=C(Nc1ccc(Nc2ccccc2)cc1)c1ccco1
- AC50 [1]: 15.8 µM [falling, single point]

SMILES: COc1ccc(S(=O)(=O)N(Cc2ccc(OC)c(OC)c2)Cc2ccco2)cc1
- AC50 [1]: 10 µM [falling, partial curve]

SMILES: Cc1cc(NC(=O)Nc2cccs2)no1
- AC50 [1]: 3.16 µM [rising, partial curve]

SMILES: O=C(CSc1nc2c(oc3ccccc32)c(=O)n1Cc1ccco1)Nc1cccc(Cl)c1
- AC50 [1]: 39.8 µM [falling, partial curve]

SMILES: CC1(C)CC(=O)C(C2(O)C(=O)N(Cc3ccccc3)c3ccccc32)CO1 (stereo not given)
- AC50 [2]: 20 µM [rising, partial curve]
- AC50 [3]: 0.00316 µM [rising, full curve, poor fit]

SMILES: Cc1cn(C)c(CC(=O)Nc2cccc(Cl)c2C)c1C(=O)O
- AC50 [1]: 6.31 µM [rising, single point]

SMILES: C/C(N)=C(/C#N)C(=O)COC(=O)c1cc(C)n(-c2ccc(F)cc2)c1C
- AC50 [1]: 39.8 µM [falling, single point]

SMILES: Cc1cc(C)cc(NC(=O)CN2C(=O)c3ccccc3Sc3ccc(C(=O)N4CCOCC4)cc32)c1
- AC50 [1]: 3.98 µM [falling, full curve]

SMILES: COc1cc2c(cc1NS(=O)(=O)c1cccc(C#N)c1)n(C)c(=O)n2C
- AC50 [1]: 10 µM [rising, partial curve]

SMILES: Cc1ccc(CNC(=O)c2ccc(CSCc3ccc(Cl)cc3)o2)cc1
- AC50 [1]: 1 µM [rising, single point]

SMILES: O=C(NCc1cccc(F)c1)C1=Cc2cc(Br)ccc2OC1
- AC50 [1]: 25.1 µM [falling, single point]

SMILES: Cc1ccc(-n2ccnc(NCc3ccccc3)c2=O)cc1C
- AC50 [1]: 39.8 µM [falling, single point]

SMILES: CN(C1CCCCC1)S(=O)(=O)c1ccc2c(c1)c(=O)c(C(=O)NCCc1ccc(Cl)cc1)cn2C
- AC50 [1]: 25.1 µM [falling, partial curve]

SMILES: Cc1ccc(-c2nnc(Nc3cccc(Cl)c3)c3ccccc23)cc1S(=O)(=O)NCC1CCCO1 (stereo not given)
- AC50 [1]: 7.94 µM [falling, partial curve]

SMILES: Cn1nc(-c2ccc(OCC(=O)Nc3cccnc3)cc2)c2ccccc2c1=O
- AC50 [1]: 20 µM [falling, partial curve]

SMILES: Nc1nc(-c2ccccc2)cc(-c2ccccc2O)n1
- AC50 [1]: 10 µM [falling, partial curve]

SMILES: COc1cccc(OCCCCn2c(-c3ccc(Cl)cc3)nc3ccccc3c2=O)c1
- AC50 [1]: 20 µM [falling, partial curve]

SMILES: Cc1ccc(-c2onc(C)c2C)cc1S(=O)(=O)NCc1ccco1
- AC50 [1]: 39.8 µM [falling, partial curve]

SMILES: O=C(c1cccc([N+](=O)[O-])c1)N1c2ncnn2C2(CCCCC2)[C@@H]2CCCC[C@@H]21
- AC50 [1]: 10 µM [falling, partial curve]

SMILES: Cc1ccc(S(=O)(=O)c2cnc(SCC(=O)Nc3ccc4c(c3)OCCO4)[nH]c2=O)cc1
- AC50 [1]: 31.6 µM [falling, partial curve]

SMILES: Cc1cc(C(=O)OCc2nnc(-c3ccccc3)o2)c(C)n1-c1ccccc1
- AC50 [1]: 15.8 µM [falling, partial curve]

SMILES: CCC(OC(=O)c1cc2sccc2n1C)C(=O)NCc1ccco1 (stereo not given)
- AC50 [1]: 25.1 µM [falling, partial curve]

SMILES: CC(C)(C)c1ccc(O)c(O)c1
- AC50 [1]: 39.8 µM [rising, partial curve] [measured here: IkB-luc green channel]
